Source: the supplement of paper PMC12067093, “Discovery and optimisation of a covalent ligand for TRIM25 and its application to targeted protein ubiquitination” (Chemical Science, 2025)
This is one part of the list.

Chains of the proteins cited; added tags and fusions are not shown. Lines headed by an entry give the natural chain unless they say otherwise; changes in a name come on top.
UniProt Q16637, whole entry, looked up: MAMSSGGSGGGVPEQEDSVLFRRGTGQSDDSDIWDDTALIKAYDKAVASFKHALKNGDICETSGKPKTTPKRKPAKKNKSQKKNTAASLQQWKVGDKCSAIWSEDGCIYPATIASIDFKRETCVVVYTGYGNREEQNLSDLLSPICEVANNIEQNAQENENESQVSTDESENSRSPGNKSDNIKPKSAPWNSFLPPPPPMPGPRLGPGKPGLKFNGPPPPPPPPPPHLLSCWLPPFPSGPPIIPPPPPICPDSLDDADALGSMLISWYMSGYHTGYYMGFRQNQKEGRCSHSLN
UniProt O60264, whole entry, looked up: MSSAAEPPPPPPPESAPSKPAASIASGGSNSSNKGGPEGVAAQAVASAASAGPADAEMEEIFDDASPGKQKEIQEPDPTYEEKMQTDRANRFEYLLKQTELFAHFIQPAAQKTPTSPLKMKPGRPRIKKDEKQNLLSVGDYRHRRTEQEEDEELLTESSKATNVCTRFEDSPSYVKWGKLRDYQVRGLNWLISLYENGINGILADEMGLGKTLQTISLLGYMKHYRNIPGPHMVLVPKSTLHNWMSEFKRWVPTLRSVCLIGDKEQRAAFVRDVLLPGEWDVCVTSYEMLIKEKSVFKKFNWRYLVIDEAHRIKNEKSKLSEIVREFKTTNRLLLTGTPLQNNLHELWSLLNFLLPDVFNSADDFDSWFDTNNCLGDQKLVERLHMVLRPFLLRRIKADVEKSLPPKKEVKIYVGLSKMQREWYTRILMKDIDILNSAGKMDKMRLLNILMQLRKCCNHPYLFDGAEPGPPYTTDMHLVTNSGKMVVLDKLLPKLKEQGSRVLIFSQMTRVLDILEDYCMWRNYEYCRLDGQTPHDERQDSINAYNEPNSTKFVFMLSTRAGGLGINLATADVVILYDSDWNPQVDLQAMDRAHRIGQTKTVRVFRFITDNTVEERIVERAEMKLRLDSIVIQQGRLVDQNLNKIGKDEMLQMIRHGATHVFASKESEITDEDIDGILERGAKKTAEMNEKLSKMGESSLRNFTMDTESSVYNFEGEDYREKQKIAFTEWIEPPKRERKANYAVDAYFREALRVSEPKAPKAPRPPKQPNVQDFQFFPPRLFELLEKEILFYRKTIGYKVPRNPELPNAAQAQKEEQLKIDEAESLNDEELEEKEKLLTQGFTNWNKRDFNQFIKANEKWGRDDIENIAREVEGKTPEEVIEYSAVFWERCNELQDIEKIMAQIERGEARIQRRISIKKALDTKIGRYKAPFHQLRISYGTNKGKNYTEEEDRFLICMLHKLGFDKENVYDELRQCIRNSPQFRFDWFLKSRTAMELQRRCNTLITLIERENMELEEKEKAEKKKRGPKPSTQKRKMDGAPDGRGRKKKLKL
UniProt Q14683: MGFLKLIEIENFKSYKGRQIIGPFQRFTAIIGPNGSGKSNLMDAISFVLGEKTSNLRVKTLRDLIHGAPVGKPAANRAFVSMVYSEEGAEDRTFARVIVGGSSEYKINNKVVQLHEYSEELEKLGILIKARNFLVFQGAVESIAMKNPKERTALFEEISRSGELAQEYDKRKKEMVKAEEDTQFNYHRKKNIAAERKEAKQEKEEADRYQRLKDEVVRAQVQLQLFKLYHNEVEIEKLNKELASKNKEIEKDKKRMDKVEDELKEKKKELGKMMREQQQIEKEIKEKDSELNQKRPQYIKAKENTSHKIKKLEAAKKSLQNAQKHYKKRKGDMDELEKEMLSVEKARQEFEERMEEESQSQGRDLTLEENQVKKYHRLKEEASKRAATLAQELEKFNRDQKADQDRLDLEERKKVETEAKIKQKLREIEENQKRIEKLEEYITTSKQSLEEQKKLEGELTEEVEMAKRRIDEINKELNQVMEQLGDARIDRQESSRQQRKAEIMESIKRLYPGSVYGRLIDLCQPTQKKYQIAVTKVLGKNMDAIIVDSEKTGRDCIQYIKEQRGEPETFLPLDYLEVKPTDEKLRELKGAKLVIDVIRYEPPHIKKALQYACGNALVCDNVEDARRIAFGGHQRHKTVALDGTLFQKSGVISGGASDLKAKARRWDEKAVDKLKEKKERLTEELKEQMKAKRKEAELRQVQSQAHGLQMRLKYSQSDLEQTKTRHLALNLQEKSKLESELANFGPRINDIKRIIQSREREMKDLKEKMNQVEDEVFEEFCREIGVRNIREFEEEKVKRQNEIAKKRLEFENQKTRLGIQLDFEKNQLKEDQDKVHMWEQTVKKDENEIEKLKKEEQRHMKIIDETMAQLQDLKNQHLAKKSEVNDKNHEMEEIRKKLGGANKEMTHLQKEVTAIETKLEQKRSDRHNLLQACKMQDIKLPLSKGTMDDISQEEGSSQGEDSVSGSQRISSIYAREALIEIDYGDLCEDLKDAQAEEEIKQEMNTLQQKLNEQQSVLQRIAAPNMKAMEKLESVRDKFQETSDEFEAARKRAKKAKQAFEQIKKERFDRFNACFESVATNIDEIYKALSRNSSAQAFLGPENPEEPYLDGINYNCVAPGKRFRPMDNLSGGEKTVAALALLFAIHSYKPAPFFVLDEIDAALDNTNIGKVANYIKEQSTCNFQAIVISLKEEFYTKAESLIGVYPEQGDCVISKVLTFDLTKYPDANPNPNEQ
UniProt Q9H2G2: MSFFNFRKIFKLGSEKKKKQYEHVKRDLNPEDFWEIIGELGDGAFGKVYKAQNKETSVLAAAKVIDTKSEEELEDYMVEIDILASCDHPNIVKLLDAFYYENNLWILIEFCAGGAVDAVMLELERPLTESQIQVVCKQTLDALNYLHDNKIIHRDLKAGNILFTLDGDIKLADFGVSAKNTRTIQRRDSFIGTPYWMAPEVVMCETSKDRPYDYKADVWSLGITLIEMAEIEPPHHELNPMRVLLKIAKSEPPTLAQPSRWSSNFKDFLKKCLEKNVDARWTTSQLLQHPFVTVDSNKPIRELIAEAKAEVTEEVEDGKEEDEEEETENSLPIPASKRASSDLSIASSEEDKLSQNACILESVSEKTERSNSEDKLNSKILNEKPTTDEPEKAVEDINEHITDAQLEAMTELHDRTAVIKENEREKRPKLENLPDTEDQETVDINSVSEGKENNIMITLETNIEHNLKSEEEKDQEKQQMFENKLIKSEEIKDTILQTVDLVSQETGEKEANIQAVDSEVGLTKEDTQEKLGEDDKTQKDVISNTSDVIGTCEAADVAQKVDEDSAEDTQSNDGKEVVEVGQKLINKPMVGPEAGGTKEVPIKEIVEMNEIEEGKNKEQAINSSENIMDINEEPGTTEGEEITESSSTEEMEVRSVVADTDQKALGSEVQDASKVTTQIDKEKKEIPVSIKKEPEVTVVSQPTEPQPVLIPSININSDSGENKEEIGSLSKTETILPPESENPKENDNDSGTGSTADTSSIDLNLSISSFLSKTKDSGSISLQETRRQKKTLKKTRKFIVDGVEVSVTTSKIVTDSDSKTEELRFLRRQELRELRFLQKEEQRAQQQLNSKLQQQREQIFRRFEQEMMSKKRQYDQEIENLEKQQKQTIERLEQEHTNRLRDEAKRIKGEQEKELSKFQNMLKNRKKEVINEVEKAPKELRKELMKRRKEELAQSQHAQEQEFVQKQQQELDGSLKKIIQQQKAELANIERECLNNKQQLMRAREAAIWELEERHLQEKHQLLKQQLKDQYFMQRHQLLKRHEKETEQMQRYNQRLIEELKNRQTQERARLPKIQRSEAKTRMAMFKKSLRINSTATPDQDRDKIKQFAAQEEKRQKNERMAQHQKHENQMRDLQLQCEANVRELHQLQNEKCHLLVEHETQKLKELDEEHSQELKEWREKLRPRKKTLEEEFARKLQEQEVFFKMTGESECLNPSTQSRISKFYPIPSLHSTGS
UniProt Q96DI7: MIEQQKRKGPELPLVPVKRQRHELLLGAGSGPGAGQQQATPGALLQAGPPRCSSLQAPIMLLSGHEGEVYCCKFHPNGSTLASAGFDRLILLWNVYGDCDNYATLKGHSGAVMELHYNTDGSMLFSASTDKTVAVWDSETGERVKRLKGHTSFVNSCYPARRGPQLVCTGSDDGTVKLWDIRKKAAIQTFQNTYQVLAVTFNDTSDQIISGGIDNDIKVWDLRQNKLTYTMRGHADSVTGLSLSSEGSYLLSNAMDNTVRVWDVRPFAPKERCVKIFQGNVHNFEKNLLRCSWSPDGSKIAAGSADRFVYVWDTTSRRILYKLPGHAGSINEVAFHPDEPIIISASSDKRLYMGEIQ
UniProt P84022, whole entry, looked up: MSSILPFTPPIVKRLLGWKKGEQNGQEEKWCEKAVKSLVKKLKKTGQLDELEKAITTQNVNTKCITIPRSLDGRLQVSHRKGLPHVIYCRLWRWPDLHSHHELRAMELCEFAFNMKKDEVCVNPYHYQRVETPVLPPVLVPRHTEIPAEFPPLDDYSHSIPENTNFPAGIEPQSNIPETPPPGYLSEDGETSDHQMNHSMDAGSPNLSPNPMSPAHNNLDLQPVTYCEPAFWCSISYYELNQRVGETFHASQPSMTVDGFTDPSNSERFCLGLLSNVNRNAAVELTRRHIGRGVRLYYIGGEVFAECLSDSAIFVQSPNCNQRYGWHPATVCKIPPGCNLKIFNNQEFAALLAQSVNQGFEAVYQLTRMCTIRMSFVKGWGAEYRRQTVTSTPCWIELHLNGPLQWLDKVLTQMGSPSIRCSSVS
UniProt Q9UQE7: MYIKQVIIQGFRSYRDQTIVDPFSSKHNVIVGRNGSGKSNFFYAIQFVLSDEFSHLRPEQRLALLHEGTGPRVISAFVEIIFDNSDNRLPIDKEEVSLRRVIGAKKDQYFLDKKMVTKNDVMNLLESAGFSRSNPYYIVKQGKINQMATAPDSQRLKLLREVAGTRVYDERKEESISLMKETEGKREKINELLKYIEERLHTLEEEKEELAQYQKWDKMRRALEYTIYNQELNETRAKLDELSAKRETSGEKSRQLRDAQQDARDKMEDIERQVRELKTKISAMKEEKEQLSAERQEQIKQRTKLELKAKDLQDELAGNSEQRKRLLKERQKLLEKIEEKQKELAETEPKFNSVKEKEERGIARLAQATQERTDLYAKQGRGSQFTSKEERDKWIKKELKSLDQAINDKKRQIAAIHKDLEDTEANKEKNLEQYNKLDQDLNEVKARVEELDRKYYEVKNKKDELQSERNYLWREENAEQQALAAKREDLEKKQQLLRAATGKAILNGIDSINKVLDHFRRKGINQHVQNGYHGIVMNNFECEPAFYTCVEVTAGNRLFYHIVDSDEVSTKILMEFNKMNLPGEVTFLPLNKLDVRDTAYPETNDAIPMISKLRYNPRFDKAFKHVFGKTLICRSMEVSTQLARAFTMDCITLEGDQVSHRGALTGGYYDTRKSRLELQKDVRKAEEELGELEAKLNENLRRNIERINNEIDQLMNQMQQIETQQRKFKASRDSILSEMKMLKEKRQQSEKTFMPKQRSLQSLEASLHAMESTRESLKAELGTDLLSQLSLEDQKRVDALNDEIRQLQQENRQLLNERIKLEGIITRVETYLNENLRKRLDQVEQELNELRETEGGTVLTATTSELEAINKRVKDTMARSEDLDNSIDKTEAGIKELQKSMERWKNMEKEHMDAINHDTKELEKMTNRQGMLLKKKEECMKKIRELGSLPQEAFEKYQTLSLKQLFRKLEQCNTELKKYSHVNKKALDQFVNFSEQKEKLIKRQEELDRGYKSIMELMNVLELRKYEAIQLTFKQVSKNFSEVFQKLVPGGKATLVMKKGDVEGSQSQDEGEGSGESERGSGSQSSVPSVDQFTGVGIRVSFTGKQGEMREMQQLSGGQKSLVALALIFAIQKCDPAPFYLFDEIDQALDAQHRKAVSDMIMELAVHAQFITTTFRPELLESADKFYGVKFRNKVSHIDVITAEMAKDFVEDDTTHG
UniProt Q13485: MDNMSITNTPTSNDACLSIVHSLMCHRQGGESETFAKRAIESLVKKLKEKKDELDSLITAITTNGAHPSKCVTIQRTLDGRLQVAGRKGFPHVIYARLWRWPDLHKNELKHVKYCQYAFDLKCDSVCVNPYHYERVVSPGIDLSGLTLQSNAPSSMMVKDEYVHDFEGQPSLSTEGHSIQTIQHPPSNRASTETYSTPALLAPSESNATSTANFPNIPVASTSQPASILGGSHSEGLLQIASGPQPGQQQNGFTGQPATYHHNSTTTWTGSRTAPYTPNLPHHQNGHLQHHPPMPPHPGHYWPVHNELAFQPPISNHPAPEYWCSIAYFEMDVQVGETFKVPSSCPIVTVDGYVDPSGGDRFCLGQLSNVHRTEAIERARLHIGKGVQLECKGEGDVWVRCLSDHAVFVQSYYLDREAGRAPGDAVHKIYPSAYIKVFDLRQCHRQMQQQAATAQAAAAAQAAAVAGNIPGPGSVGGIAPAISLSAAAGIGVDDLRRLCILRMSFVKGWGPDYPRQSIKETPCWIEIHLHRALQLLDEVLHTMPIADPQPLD

Compound: CC1Cc2ccccc2N1C(=O)C1CCCN(C1)C(=O)CCl (mixture of isomers) [TRIM25 ligand 11 (diastereomer mixture)]
Experiment: probe-labelled cysteine peptide fold change vs DMSO (competition) (log2 fold change); higher = less target engagement (more negative = stronger competition)
Conditions: THP-1, incubation time: 4 h
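Further: competitive chemoproteomic profiling in live THP-1 cells with an iodoacetamide desthiobiotin (IA-DTB) probe, comparing probe-labelled peptide intensities in compound-treated cells against DMSO-treated controls.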

Target	probe-labelled cysteine peptide fold change (10 µM)	probe-labelled cysteine peptide fold change (50 µM)
SMN2_Q16637_123_ETCVVVYTGYGNR (UniProt Q16637)	0.21	0.222
SMARCA5_O60264_519_VLDILEDYCMWR (UniProt O60264)	-0.0513	-0.0283
SMC2_O95347_585_CIAPETLR (UniProt O95347)	0.0281	0.102
SLC35F6_Q8N357_36_WADNFMAEGCGGSK (UniProt Q8N357)	-0.11	-0.189
SMC1A_Q14683_781_MNQVEDEVFEEFCR (UniProt Q14683)	0.0344	0.0302
SMARCC1_Q92922_462_SVDLGEDNVTEQTNHIIIPSYASWFDYNCIHVIER (UniProt Q92922)	-0.234	-0.397
SMN2_Q16637_60_NGDICETSGKPK (UniProt Q16637)	-0.146	-0.16
SLK_Q9H2G2_86_SEEELEDYMVEIDILASCDHPNIVK (UniProt Q9H2G2)	0.428	0.243
SNRNP40_Q96DI7_168_RGPQLVCTGSDDGTVK (UniProt Q96DI7)	-0.162	-0.0415
SLC39A10_Q9ULF5_598_NYLCIEEEK (UniProt Q9ULF5)	-0.116	-0.158
SMC5_Q8IY18_417_ALCEGEIIDK (UniProt Q8IY18)	-0.0881	0.0517
SMAD3_P84022_394_QTVTSTPCWIELHLNGPLQWLDK (UniProt P84022)	-0.159	-0.000492
SMC3_Q9UQE7_972_LEQCNTELK (UniProt Q9UQE7)	0.0172	0.0334
SMAD4_Q13485_115_YCQYAFDLK (UniProt Q13485)	-0.0473	-0.0401
SND1_Q7KZF4_837_DIQNTQCLLNVEHLSAGCPHVTLQFADSKGDVGLGLVK (UniProt Q7KZF4)	-0.251	-0.464
SMU1_Q2TAY7_219_SHVECAR (UniProt Q2TAY7)	0.194	0.11
SLK_Q9H2G2_1138_DLQLQCEANVR (UniProt Q9H2G2)	-0.0984	-0.119
SMC6_Q96SB8_58_NFMCHSMLGPFK (UniProt Q96SB8)	-0.116	-0.00986
SMC1A_Q14683_619_ALQYACGNALVCDNVEDAR (UniProt Q14683)	0.499	0.406

Target	probe-labelled cysteine peptide fold change (10 µM)	probe-labelled cysteine peptide fold change (50 µM)
SNRNP200_O75643_1580_LTAIDILTTCAADIQR (UniProt O75643)	0.135	-0.122
SMCHD1_A6NHR9_84_EITCDNFDETVK (UniProt A6NHR9)	-0.00484	-0.0181
SMARCA4_P51532_423_QEVVVCMR (UniProt P51532)	0.0983	0.11
SMARCA4_P51532_998_CDMSALQR (UniProt P51532)	0.13	0.146
SMYD4_Q8IYR2_501_HMLQLQCNAQAMTTIQHTGPK (UniProt Q8IYR2)	-0.0139	0.123
SLX4_Q8IY92_786_FGVSELVHLCEQVPIATDSEGKPWEEK (UniProt Q8IY92)	0.00222	0.116
SMAD5_Q99717_378_IPSSCSLK (UniProt Q99717)	-0.0851	0.000243
SNRNP48_Q6IEG0_26_LQEELNEFVESGCR (UniProt Q6IEG0)	0.00655	-0.0667
SMARCA5_O60264_1001_CNTLITLIERENMELEEK (UniProt O60264)	-0.233	-0.0556
SNAP47_Q5SQN1_369_SCSVWHAASGLMGR (UniProt Q5SQN1)	-0.0781	-0.228
SMARCB1_Q12824_147_NSQWVPTLPNSSHHLDAVPCSTTINR (UniProt Q12824)	-0.0549	-0.612
SMCHD1_A6NHR9_897_GPVNSCQGK (UniProt A6NHR9)	-0.0594	-0.0254
SMCHD1_A6NHR9_1751_IAHLAQIEDDRAAMVISWHLASDMDCVVTLTTDAAR (UniProt A6NHR9)	0.0608	0.115
SMG1_Q96Q15_2396_LSCEQVLHIMR (UniProt Q96Q15)	0.169	0.331
SMAD4_Q13485_363_FCLGQLSNVHR (UniProt Q13485)	0.191	0.253
SLC43A3_Q8NBI5_226_GHIPYPLPPNYSYGLCPGNGTTK (UniProt Q8NBI5)	0.0564	0.256
SLU7_O95391_445_CCHSFFK (UniProt O95391)	0.132	0.191
SMAD3_P84022_109_AMELCEFAFNMK (UniProt P84022)	0.149	0.161
SMC3_Q9UQE7_1134_CDPAPFYLFDEIDQALDAQHRK (UniProt Q9UQE7)	-0.044	0.191
